Laboratory results from PubChem BioAssay AID1469 (National Center for Advancing Translational Sciences (NCATS), 2008).
The campaign covered roughly 280,000 compounds. About 180 (0.064%) were called active. Inconclusive means that the source gave no clear call. Such entries were picked first, then a sample of the others. Calls follow the shape of the dose curve; as a rule, active = well fitted inhibition curve with a large enough effect; inconclusive = small, poorly fitted or top-dose-only effect, or effect the other way; inactive = flat fitted curve, though single readings scatter. Where the call is inconclusive, the potency comes from a doubtful curve fit.

By UniProt entry, the sequences of proteins in these tests, tags left out. Where a name states a change or a piece, a line headed by the entry shows the natural chain unless it says otherwise.
UniProt P10828: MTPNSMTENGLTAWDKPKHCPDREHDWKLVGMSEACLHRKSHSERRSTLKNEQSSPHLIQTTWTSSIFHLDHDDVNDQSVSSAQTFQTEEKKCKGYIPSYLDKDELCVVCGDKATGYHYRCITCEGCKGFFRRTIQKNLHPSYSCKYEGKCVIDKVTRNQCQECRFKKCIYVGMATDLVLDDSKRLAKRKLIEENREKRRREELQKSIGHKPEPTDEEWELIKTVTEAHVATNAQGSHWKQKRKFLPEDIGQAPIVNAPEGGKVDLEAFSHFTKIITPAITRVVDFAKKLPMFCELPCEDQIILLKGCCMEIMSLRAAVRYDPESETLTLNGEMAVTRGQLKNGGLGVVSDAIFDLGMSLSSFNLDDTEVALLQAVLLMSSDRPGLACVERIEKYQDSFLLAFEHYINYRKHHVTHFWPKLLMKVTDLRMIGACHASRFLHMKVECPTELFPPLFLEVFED

target: Thyroid hormone receptor beta (Homo sapiens) (UniProt P10828); experiment: qHTS for Inhibitors of the Interaction of Thyroid Hormone Receptor and Steroid Receptor Coregulator 2; settings: TRbeta-SRC2 peptide binding, fluorescence polarization, receptor liganded with 1 µM T3; series mostly up to 106 µM; activity change, negative = inhibition: at the top concentration; also: nearly all actives have a fitted effect of over 50% in size;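 as to activity change, negative = inhibition: plate controls were bound peptide for no effect and peptide without receptor for full effect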
Text: NIH Molecular Libraries Probe Production Network [MLPCN]
NIH Chemical Genomics Center [NCGC]
Assay Provider: R. Kip Guy, St. Jude Children's Research Hospital
Thyroid receptor (TR) regulates many homeostatic processes including basal metabolism, cardiovascular function, body weight, and lipid trafficking. TR modulators are potential therapeutics for obesity and hyperlipidemias but current thyroid analogs have undesirable side effects, particularly cardiac stimulation. To identify inhibitors that specifically prevent the interaction of TR with the steroid receptor coregulator 2 (SRC2), a fluorescence polarization assay was screened. This assay detects interaction of the ligand-binding domain of human TRb with a Texas Red labeled SRC2 peptide, corresponding to a 20 amino acid region of the nuclear receptor interaction domain (Arnold et al., 2006). Small molecule inhibitors that block the interaction of TR and SRC2 are detected by a decrease in fluorescence polarization.
Arnold, L. A.; Estebanez-Perpina, E.; Togashi, M.; Shelat, A.; Ocasio, C. A.; McReynolds, A. C.; Nguyen, P.; Baxter, J. D.; Fletterick, R. J.; Webb, P.; Guy, R. K. A high-throughput screening method to identify small molecule inhibitors of thyroid hormone receptor coactivator binding. Sci STKE 2006, p 13.
NCGC Assay Protocol Summary:
For screening, 5 uL/well 0.6 uM TRb and 20 nM SRC2 Texas Red in protein buffer (20mM Tris hydrochloride, 100mM NaCl, 10% glycerol, 1mM EDTA, 0.01% NP-40, 1mM DTT, 1uM T3 and 5% DMSO) was dispensed into black solid 1536-well plates (Grenier) using a solenoid-based dispenser. Following transfer of 23 nL compound or DMSO vehicle by a pin tool, the plates were centrifuged 15 s at 1000 RPM and incubated 5 hr at ambient temperature. The plates were read by an Envision (Perkin Elmer) to detect fluorescence polarization of SRC2 Texas Red (555 nm excitation and 632 nm emission). Data were normalized to unbound (all components except TRb) and bound SRC2 Texas Red controls. In this assay, we provide % activity data for each concentration as well as potencies for the active compounds.
Keywords: NIH Roadmap, MLPCN, MLI, MLSMR, qHTS, NCGC, qHTS, thyroid hormone receptor, steroid receptor coactivator, fluorescence polarization
Potency is read from the fitted curve at half-maximal effect.

| SMILES | activity change, negative = inhibition | Potency |
| --- | --- | --- |
| Cc1nc(-n2nc(C)c(Cc3ccccc3Cl)c2C)sc1C(=O)N1CCCCC1C (configuration not stated) | inactive: -9.38% |  |
| COc1cccc2c1C(=O)c1c(O)c3c(c(O)c1C2=O)C[C@@](O)(C(=O)CO)C[C@@H]3OC1CC(N)C(O)C(C)O1 (some centres not stated) |  | active: 20 µM |
| CC(=O)c1c(C)oc2ccc(N(C(=O)Oc3ccccc3)S(=O)(=O)c3ccc(C(C)(C)C)cc3)cc12 |  | inconclusive: 0.316 µM [inhibitor, full curve] |
| O=C(c1ccccc1F)N1C(=O)c2cccc3cccc1c23 |  | inconclusive: 70.8 µM [activator, single point] |
| CCOc1cc(CNc2ccc(O)cc2)cc(Cl)c1OCc1ccccc1 |  | inconclusive: 0.891 µM [inhibitor, full curve] |
| O=S(=O)(Nc1cc(Sc2cccc3cccnc23)c(O)c2ccccc12)c1ccc(F)cc1 |  | inconclusive: 50.1 µM [inhibitor, single point] |
| COc1ccc(CN(C(=O)c2cc3ccccc3oc2=O)C2CCCCC2)cc1OC |  | inconclusive: 0.0794 µM [inhibitor, full curve, poor fit] |
| CN(C)c1ccc(N/C=C/C(=O)C(C)(C)C)cc1 |  | active: 44.7 µM |
| CC(C)c1ccc(NC(=O)CCS(=O)(=O)c2ccc(Br)s2)cc1 |  | inconclusive: 316 µM [inhibitor, partial curve] |
| CCn1c(CSc2nccn2C)nc2cc(C(=O)O)ccc21 |  | inconclusive: 7.94 µM [inhibitor, full curve] |
| CC[C@](N)(CCC(=O)O)C(=O)O |  | inconclusive: 35.5 µM [inhibitor, single point] |
| O=C(O)c1cccc(NC(=S)N/N=C/c2ccccc2OCc2cccc(Br)c2)c1 |  | inconclusive: 50.1 µM [activator, partial curve] |
| COCCn1c(N)c(C(=O)NCC2CCCO2)c2nc3ccccc3nc21 (configuration not stated) |  | inconclusive: 6.31 µM [inhibitor, full curve] |
| C/C(Cn1nnc([N+](=O)[O-])n1)=N\NC(=O)c1cccc(Cl)c1 | inactive: 2.25% |  |
| Cc1cc([N+](=O)[O-])nn1CC(=O)Nc1c(C)n(C)n(-c2ccccc2)c1=O | inactive: -0.656% |  |
| Nc1cnccc1C(=O)O |  | inconclusive: 44.7 µM [inhibitor, partial curve] |
| CCOC(=O)c1ccc(NC2=CC(c3ccc(Br)cc3)N(c3ccc(C(=O)OCC)cc3)C2=O)cc1 (configuration not stated) |  | inconclusive: 11.2 µM [inhibitor, partial curve, poor fit] |
| COc1ccc(NC(=O)Cn2c(=O)n(-c3ccc(Cl)cc3)c(=O)c3c(C)c(C(=O)N(C)C)sc32)cc1Cl | inactive: -2.94% |  |
| CC1=C(c2ccc(C)cc2)S(=O)(=O)NC1=NCCCN1CCN(c2cc(C)ccc2C)CC1 | inactive: -0.687% |  |
| Cc1cc2cc(CNC(=O)c3cc4ccccc4o3)ccc2n1C |  | inconclusive: 44.7 µM [inhibitor, partial curve] |
| CC1CCCN(S(=O)(=O)c2ccc(NC(=O)Cn3nnc(-c4ccccc4F)n3)cc2)C1 (configuration not stated) | inactive: 4.32% |  |
| CC(C)(C)c1ccc(OC(=O)c2cccnc2)cc1 |  | inconclusive: 3.98 µM [inhibitor, full curve, poor fit] |
| CC(/C=C/c1ccco1)=N/NC(=O)c1ccc(C)nc1 | inactive: -3.82% |  |

| SMILES | activity change, negative = inhibition | Potency |
| --- | --- | --- |
| Cc1ccc(-c2nc3cc(NC(=O)C(C)C)ccc3o2)cc1 |  | inconclusive: 89.1 µM [inhibitor, partial curve] |
| Cc1cccc(NC(=O)c2c(C)cc(C)nc2SCC(=O)Nc2c(C)cc(C)cc2C)c1 | inactive: -0.0482% |  |
| CC1=NN(Cc2ccccc2)C(=O)C1 |  | inconclusive: 14.1 µM [inhibitor, full curve] |
| CCN1C=C(Cc2ccccc2C)C2=C(C1)C(c1ccccc1C)C(C#N)=C(N)O2 (configuration not stated) |  | inconclusive: 44.7 µM [inhibitor, partial curve] |
| O=C(Nc1ccc2c(c1)OCO2)c1ccc(N2C(=O)c3ccccc3C2=O)cc1 |  | inconclusive: 0.0112 µM [inhibitor, full curve, poor fit] |
| CCO/C=C1\SC(=S)N(c2ccc(Cl)cc2)C1=O |  | inconclusive: 39.8 µM [activator, partial curve] |
| O=C(Nc1ccc2oc(-c3ccc4ccccc4c3)nc2c1)c1cc(Cl)ccc1Cl |  | inconclusive: 31.6 µM [inhibitor, single point] |
| CCC(C)NC(=O)Nc1ccc(Br)cc1 (configuration not stated) | inactive: 0.719% |  |
| CCOc1ccc(CNC(=O)C2CCCN(c3nn4cc(-c5ccc(F)cc5)nc4s3)C2)cc1 (configuration not stated) | inactive: -4.94% |  |
| Cc1cc(Nc2ccc(O)cc2)ccc1N |  | inconclusive: 39.8 µM [inhibitor, partial curve] |
| COc1cc(/C=N/N2C(=O)CSC2=S)cc(Br)c1O |  | inconclusive: 28.2 µM [activator, partial curve] |
| C/C(=N\Nc1nc(-c2cc(C)ccc2C)cs1)c1cc2c(ccc3ccccc32)oc1=O |  | inconclusive: 35.5 µM [activator, partial curve] |
| Cc1nc(SCC#N)c2c(C)c(C)sc2n1 |  | inconclusive: 100 µM [inhibitor, partial curve, poor fit] |
| CCCCCCC#CC1C=CC(OC(C)=O)C(COC(C)=O)O1 (configuration not stated) | inactive: 6.79% [at 11.2 µM] |  |
| N#Cc1nc(COc2ccccc2Cl)oc1NCc1cccnc1 |  | inconclusive: 0.0224 µM [inhibitor, full curve, poor fit] |
| CCc1ccc(CNC(=O)C(CC)n2nc(C)c3c(C)n(-c4ccccc4)nc3c2=O)cc1 (configuration not stated) | inactive: 5.11% |  |
| N#C/C(=C\C=C\c1ccccc1[N+](=O)[O-])C(=O)NC1CCCCC1 |  | inconclusive: 44.7 µM [inhibitor, partial curve] |
| Cc1ccc(NC(=O)CCCCCCCCCCC2COCCO2)c(C)c1 (configuration not stated) |  | inconclusive: 35.5 µM [inhibitor, partial curve] |
| O=C(O)CCC(=O)N1CCc2cc(S(=O)(=O)NC3CCCC3)ccc21 | inactive: -15.4% |  |
| CCC(=O)CC(NC(=O)OC)c1ccc(F)cc1 (configuration not stated) | inactive: 0.103% [at 11.2 µM] |  |
| Cc1oc2cc(O)ccc2c(=O)c1Oc1ccc2ccccc2c1 |  | inconclusive: 0.1 µM [inhibitor, full curve] |
| Nc1ccc(N(CCO)CCO)cc1 |  | inconclusive: 44.7 µM [inhibitor, partial curve] |
| CCNc1ccc2noc3c2c1C(=O)c1ccccc1-3 |  | active: 14.1 µM |

In the list so far, these have a nitro group on carbon.

| SMILES | activity change, negative = inhibition | Potency |
| --- | --- | --- |
| C/C(Cn1nnc([N+](=O)[O-])n1)=N\NC(=O)c1cccc(Cl)c1 | inactive: 2.25% |  |
| Cc1cc([N+](=O)[O-])nn1CC(=O)Nc1c(C)n(C)n(-c2ccccc2)c1=O | inactive: -0.656% |  |
| N#C/C(=C\C=C\c1ccccc1[N+](=O)[O-])C(=O)NC1CCCCC1 |  | inconclusive: 44.7 µM [inhibitor, partial curve] |

Later entries.

| SMILES | activity change, negative = inhibition | Potency |
| --- | --- | --- |
| CCn1c(=NC(=O)c2ccc(N3C(=O)CCC3=O)cc2)sc2c(OC)ccc(OC)c21 |  | inconclusive: 50.1 µM [activator, partial curve] |
| CCN1/C(=C2\OC(=S)N(C)C2=O)C=Cc2ccccc21 |  | inconclusive: 7.08 µM [activator, full curve] |
| NS(=O)(=O)c1ccc(NC(=O)COC(=O)c2cn(-c3ccccc3)nc2-c2ccccc2)cc1 | inactive: -3.43% |  |
| Oc1ccc2ccccc2c1/C=N/c1nc2c(s1)CCCC2 |  | inconclusive: 70.8 µM [inhibitor, partial curve] |
| O=C1c2ccccc2-c2onc3c(NCCO)cc(NC4CCCCC4)c1c23 |  | inconclusive: 44.7 µM [inhibitor, partial curve] |
| O=C(O)c1ccc(NC2=C/C(=N/S(=O)(=O)c3ccccc3)c3ccccc3C2=O)cc1 |  | inconclusive: 31.6 µM [inhibitor, full curve, poor fit] |
| CCCCCCN=CC1=C(O)CC(C)(C)CC1=O |  | inconclusive: 79.4 µM [inhibitor, partial curve] |
| CC1=C(C(=O)Nc2ccc(C)cc2C)C(c2ccccc2F)n2nc(SCC(=O)c3ccc(C)cc3)nc2N1 (configuration not stated) | inactive: -17.7% |  |
| COc1cc(-c2cc(OC)c3c(C)oc(C)c3c(=O)c2)ccc1OC(=O)c1cccc(Cl)c1 |  | inconclusive: 5.62 µM [inhibitor, full curve, poor fit] |
| O=C(c1ccccc1)N1CCCN(c2nccc(C(F)(F)F)n2)CC1 | inactive: -6.66% |  |
| COC(=O)c1ccccc1N/C=C1\CCc2c(c(C)nn2-c2ccccn2)C1=O |  | inconclusive: 28.2 µM [inhibitor, full curve] |
| Cc1cc2cc(CNS(=O)(=O)c3ccccc3)ccc2n1C |  | active: 44.7 µM |
| N#Cc1c(-c2cccs2)nc(SCC(=O)c2ccc(Br)cc2)[nH]c1=O |  | inconclusive: 79.4 µM [activator, single point] |
| CC(=O)N1CCn2c3c(c(=O)c4cc(C)ccc42)CCC31 (configuration not stated) |  | inconclusive: 44.7 µM [inhibitor, partial curve] |
| COc1ccc(CCNC(=O)Cn2c(=O)n(CCCC(=O)NCc3ccco3)c(=O)c3sccc32)cc1OC |  | inconclusive: 35.5 µM [inhibitor, single point] |
| CC(C)COc1ccc(C(=O)CCN2CCCCC2)cc1 |  | inconclusive: 39.8 µM [inhibitor, partial curve] |
| COC(=O)c1c(NC(=O)CN2CCC3(O)CCCCC3C2c2ccc(OC)cc2OC)sc(C)c1C (configuration not stated) |  | inconclusive: 79.4 µM [inhibitor, partial curve] |
| Cc1[nH][nH]c(=O)c1C(c1ccc(-c2ccc(Cl)c(Cl)c2)o1)c1c(C)[nH][nH]c1=O |  | active: 14.1 µM |
| O=S(=O)(O)c1ccc2c(c1)-c1nc-2nc2[nH]c(nc3nc(nc4[nH]c(n1)c1ccc(S(=O)(=O)O)cc41)-c1ccc(S(=O)(=O)O)cc1-3)c1ccc(S(=O)(=O)O)cc21 |  | inconclusive: 8.91 µM [activator, full curve] |
| O=C(Nc1ccc(Cl)c(-c2nc3cc(Cl)ccc3o2)c1)c1cc([N+](=O)[O-])ccc1N1CCOCC1 |  | inconclusive: 22.4 µM [inhibitor, partial curve] |
| CSC1=NSC2=NC(=O)/C(=C\c3coc4ccccc4c3=O)C(=N)N12 | inactive: 21.3% |  |
